# PubChem BioAssay AID743255 (National Center for Advancing Translational Sciences (NCATS), 2014)
# Chains of the proteins cited; added tags and fusions are not shown. Lines headed by an entry give the natural chain unless they say otherwise; changes in a name come on top.
# UniProt O94782: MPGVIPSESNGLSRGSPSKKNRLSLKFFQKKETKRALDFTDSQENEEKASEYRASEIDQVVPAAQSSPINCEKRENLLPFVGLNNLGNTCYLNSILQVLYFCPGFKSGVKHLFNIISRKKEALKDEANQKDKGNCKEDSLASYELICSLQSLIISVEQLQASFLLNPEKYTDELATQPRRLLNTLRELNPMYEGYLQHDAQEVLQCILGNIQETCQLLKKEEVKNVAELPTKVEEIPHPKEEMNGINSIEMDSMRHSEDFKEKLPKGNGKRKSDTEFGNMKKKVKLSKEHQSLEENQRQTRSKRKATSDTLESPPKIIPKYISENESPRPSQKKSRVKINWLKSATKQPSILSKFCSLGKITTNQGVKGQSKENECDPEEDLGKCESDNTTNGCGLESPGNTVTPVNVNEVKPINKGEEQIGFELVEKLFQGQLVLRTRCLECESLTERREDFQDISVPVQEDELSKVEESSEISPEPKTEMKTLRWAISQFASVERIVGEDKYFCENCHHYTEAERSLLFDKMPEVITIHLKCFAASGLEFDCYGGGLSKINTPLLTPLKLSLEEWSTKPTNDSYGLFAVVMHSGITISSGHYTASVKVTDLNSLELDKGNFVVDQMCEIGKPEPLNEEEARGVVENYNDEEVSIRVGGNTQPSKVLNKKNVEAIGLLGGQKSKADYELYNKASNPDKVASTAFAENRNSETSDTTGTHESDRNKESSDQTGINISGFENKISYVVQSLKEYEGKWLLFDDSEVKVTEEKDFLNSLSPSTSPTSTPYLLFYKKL
# Among all 390,000 compounds or so, about 910 (0.23%) were called active. Inconclusive results, whose numbers are uncertain, are shown with a selection of clear calls. Calls follow the shape of the dose curve; as a rule, active = well fitted inhibition curve with a large enough effect; inconclusive = small, poorly fitted or top-dose-only effect; inactive = no such curve, though single readings can be large or run the other way. Potencies of inconclusive entries are doubtful fits and often do not repeat.
# Molecular target: Ubiquitin carboxyl-terminal hydrolase 1 (Homo sapiens) (UniProt O94782)
# Assay: Inhibitors of USP1/UAF1: Primary Screen; also: nearly all actives have a fitted effect of over 60% in size
# Settings: recombinant USP1/UAF1, Ub-Rhodamine cleavage fluorescence; activity change, negative = inhibition: at 57.1 µM (top of the series)
# In short: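 High-throughput fluorogenic screen: 1nM USP1/UAF1 complex, Ub-Rho substrate 150nM final, 50mM HEPES pH 7.8 with 0.5mM EDTA, 0.1 mg/ml BSA, 1mM TCEP and 0.01% Tween-20.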
# % is scaled to controls: 0 for no effect and ±100 for the full control effect; potency is read from the fitted curve at half-maximal effect.
SMILES,Potency,"activity change, negative = inhibition"
CCOC(=O)[C@]12Cc3ccsc3[C@H]1N(Cc1ccccc1)C(=O)c1ccccc12,"inconclusive: 5.62 µM [inhibitor, full curve, poor fit]",–
COc1ccccc1N1CCN(C(=O)c2cc3c(-c4ccccc4F)nn(C)c3s2)CC1,"inconclusive: 4.47 µM [inhibitor, full curve]",–
Oc1c(Br)c(Br)c(Br)c(Br)c1Br,"inconclusive: 31.6 µM [inhibitor, single point]",–
C[C@]12CCC3C(CC[C@H]4C[C@H](OC(=O)c5cccnc5)CC[C@]34C)C1CCC2=O (some centres not stated),"inconclusive: 6.31 µM [inhibitor, partial curve]",–
CCCC/C(=N\O)c1c[nH]c2ccccc12,"inconclusive: 28.2 µM [inhibitor, single point]",–
O=c1c2ccccc2nc(-c2ccccc2Cl)n1-c1ccc(O)cc1,"inconclusive: 1.41 µM [inhibitor, full curve, poor fit]",–
O=c1[nH]c(=S)[nH]c(O)c1N=Nc1ccc(S(=O)(=O)N2CCc3ccccc32)cc1,–,inactive: -11.9%
CCCCCc1nc2c(c(=O)c3ccccc3n2C)c(=O)n1C1CCCCCC1,"inconclusive: 44.7 µM [inhibitor, partial curve]",–
C[C@@H](NC(=O)C[C@@H]1C[C@@H]2c3cc(NS(=O)(=O)c4ccc(F)cc4)ccc3O[C@@H]2[C@@H](CO)O1)c1ccccc1,"inconclusive: 44.7 µM [inhibitor, partial curve, poor fit]",–
Cc1cccc(-n2c(/C=C/c3ccccn3)nc3ccccc3c2=O)c1,–,inactive: -26.8%
O[C@H]1C[C@H](c2ccccc2)N(CC2CCCCC2)C[C@@H]1n1cc(-c2ccc(F)cc2)nn1,"inconclusive: 7.08 µM [inhibitor, full curve, poor fit]",–
C[C@@H]1CN([C@@H](C)CO)C(=O)CCCn2cc(nn2)CO[C@H]1CN(C)C(=O)Oc1cccc2ccccc12,"inconclusive: 8.91 µM [inhibitor, full curve, poor fit]",–
CC(C)CCNC(=O)c1c(N)n(Cc2ccc3c(c2)OCO3)c2nc3ccccc3nc12,"inconclusive: 31.6 µM [inhibitor, single point]",–
CCOc1cc(CNCCc2c[nH]c3ccccc23)cc(Cl)c1OC,–,inactive: -3.9%
CC(=O)NC1=C(N2CC2C)C(=O)C(NC(C)=O)=C(N2CC2C)C1=O (configuration not stated),"inconclusive: 28.2 µM [inhibitor, partial curve]",–
O=C(NN=Cc1ccc(N(CCCl)CCCl)cc1)c1cc(=O)[nH]c(=O)[nH]1,"inconclusive: 56.2 µM [inhibitor, partial curve, poor fit]",–
CCC1(CC)COP(=O)(OCC(Cl)CCl)OC1 (configuration not stated),–,inactive: -16.4%
N=C1/C(=C\c2ccc(OC(=O)c3ccccc3Cl)cc2)C(=O)N=C2SC(N3CCOCC3)=NN12,"inconclusive: 44.7 µM [inhibitor, partial curve, poor fit]",–
C[n+]1c(-c2ccccc2)c2cc(N)ccc2c2ccc(N)cc21,"inconclusive: 7.08 µM [inhibitor, full curve]",–
CC(C)n1c(=O)c(C=Nc2ccc(Br)cc2)c(O)n(Cc2ccco2)c1=O,"inconclusive: 39.8 µM [inhibitor, partial curve, poor fit]",–
CCc1nnc(NS(=O)(=O)c2ccc(N=Cc3c(O)n(-c4ccc(Cl)cc4)c(=O)[nH]c3=O)cc2)s1,"inconclusive: 39.8 µM [inhibitor, partial curve, poor fit]",–

SMILES,Potency,"activity change, negative = inhibition"
O=c1c2ccccc2[se]n1-c1ccccc1,–,inactive: -3.6%
CC12CCC(=O)C=C1C=CC1C2CCC2(C)C(O)CCC12 (configuration not stated),"inconclusive: 5.62 µM [inhibitor, full curve, poor fit]",–
c1ccc2c(c1)Nc1ccccc1S2,"inconclusive: 0.891 µM [inhibitor, full curve]",–
C[C@H](CO)N1C[C@H](C)[C@@H](CN(C)C(=O)NC2CCCCC2)Oc2c(cccc2N(C)C)C1=O,"inconclusive: 0.251 µM [inhibitor, full curve, poor fit]",–
CC(C)c1ccc(NC(=O)CN2C(=O)CN=C(c3ccccc3)c3ccccc32)cc1,–,inactive: -16.9%
NCCc1c(Cc2ccccc2)[nH]c2ccccc12,"inconclusive: 10 µM [inhibitor, partial curve, poor fit]",–
CSc1ccc(CN2CCN(c3ccccc3C)CC2)cc1,"inconclusive: 17.8 µM [inhibitor, partial curve]",–
COCCOC(=O)C1=C(N)OC(C)=C(C(=O)OC)C12C(=O)Nc1ccccc12 (configuration not stated),"inconclusive: 44.7 µM [inhibitor, partial curve, poor fit]",–
CCn1c(O)c(N=Nc2cccc(S(=O)(=O)N3CCOCC3)c2)c(=O)n(CC)c1=S,–,inactive: -9.42%
C=CCN1C(=O)/C(=C/c2ccc(Br)s2)C(=O)NC1=S,"inconclusive: 44.7 µM [inhibitor, partial curve, poor fit]",–
COC(=O)C1=C(c2ccccc2OCc2ccccc2)C[C@@H]2CC[C@H]1N2C(=O)NCc1cccc(F)c1,"inconclusive: 10 µM [inhibitor, full curve]",–
O=c1c2ccccc2nc(CBr)n1-c1ccc(Cl)cc1,"inconclusive: 0.251 µM [inhibitor, full curve, poor fit]",–
O=C(CNC(=O)c1cccs1)OCC(=O)c1ccc([N+](=O)[O-])cc1,"inconclusive: 25.1 µM [inhibitor, partial curve, poor fit]",–
O=C(Nc1ccc2c(c1)OCO2)c1cccn(Cc2ccc(F)cc2)c1=O,"inconclusive: 0.282 µM [inhibitor, full curve, poor fit]",–
COC(=O)C1=C(c2ccccc2OCc2ccccc2)C[C@@H]2CC[C@H]1N2C(=O)NCc1ccc(C(F)(F)F)cc1,"inconclusive: 7.08 µM [inhibitor, full curve]",–
C/C(=N\NC(=O)c1ccccc1O)c1c(O)n(Cc2ccccc2)c(=O)[nH]c1=O,"inconclusive: 39.8 µM [inhibitor, partial curve]",–
O=c1cccc2n1CC1CNC[C@H]2C1,"inconclusive: 158 µM [inhibitor, partial curve, poor fit]",–
C/C(=N\N=C(N)N)c1ccccc1,"inconclusive: 7.94 µM [inhibitor, partial curve, poor fit]",–
COc1cc2c3c(c1OC)Oc1ccc(cc1)C[C@H]1c4c(cc(OC)c(OC)c4Oc4ccc(cc4)C[C@@H]3N(C)CC2)CCN1C,"inconclusive: 8.91 µM [inhibitor, full curve, poor fit]",–
O=C(NN=Cc1ccc(N(CCCl)CCCl)cc1)C(=O)c1c[nH]c2ccccc12,"inconclusive: 39.8 µM [inhibitor, single point]",–
O=C(COc1ccc(Cl)cc1)N(c1ccc(Cl)cc1)C1CN2CCC1CC2 (configuration not stated),–,inactive: -17.6%

# One compound at a time, from the list above. Values in the order: Potency	activity change, negative = inhibition
# O[C@H]1C[C@H](c2ccccc2)N(CC2CCCCC2)C[C@@H]1n1cc(-c2ccc(F)cc2)nn1 as listed: inconclusive: 7.08 µM [inhibitor, full curve, poor fit]	–
# C=CCN1C(=O)/C(=C/c2ccc(Br)s2)C(=O)NC1=S as listed: inconclusive: 44.7 µM [inhibitor, partial curve, poor fit]	–

# Nothing new here: two of the compounds above.
SMILES,Potency,"activity change, negative = inhibition"
COCCOC(=O)C1=C(N)OC(C)=C(C(=O)OC)C12C(=O)Nc1ccccc12 (configuration not stated),"inconclusive: 44.7 µM [inhibitor, partial curve, poor fit]",–
CCn1c(O)c(N=Nc2cccc(S(=O)(=O)N3CCOCC3)c2)c(=O)n(CC)c1=S,–,inactive: -9.42%

# (more compounds)

SMILES,Potency,"activity change, negative = inhibition"
COc1ccccc1N1CCN(C(=O)CCS(=O)(=O)c2ccc3c(c2)oc(=O)n3C)CC1,"inconclusive: 39.8 µM [inhibitor, partial curve, poor fit]",–
CCOC(=O)Cn1cc(/C=N/NC(=O)CC#N)c2ccccc21,"inconclusive: 31.6 µM [inhibitor, single point]",–
CC1(C)OC(c2ccccc2)=C/C(=C/C=C2C(=O)NC(=O)NC2=O)O1,"inconclusive: 25.1 µM [inhibitor, single point]",–
CN1C(=O)C(=Cc2sc(=O)n(-c3ccccc3)c2N2CCCCC2)C(=O)N(C)C1=O,"inconclusive: 25.1 µM [inhibitor, partial curve]",–
O=Nc1c(O)c2ccccc2c2ccccc12,"inconclusive: 28.2 µM [inhibitor, single point]",–
Cn1cc(C=C(C#N)C#N)c2ccccc21,"inconclusive: 31.6 µM [inhibitor, partial curve]",–
Cc1cccc(N2C(=O)/C(=C/c3ccc(N4CCN(C)CC4)o3)C(=O)NC2=S)c1C,"inconclusive: 22.4 µM [inhibitor, partial curve]",–
COc1ccc2c(c1)NP(=S)(c1ccccc1)N2 (configuration not stated),"inconclusive: 35.5 µM [inhibitor, partial curve, poor fit]",–
COc1ccc(-c2nc(CN3C(=O)CN=C(c4ccccc4)c4ccccc43)c(C)o2)cc1OC,–,inactive: -1.97%
C=CCc1cc(C=C2C(=O)N(C)C(=O)N(C)C2=O)cc(OCC)c1OCc1ccccc1,"inconclusive: 44.7 µM [inhibitor, partial curve, poor fit]",–
CC[n+]1c(/C=C/N(C)c2ccccc2)sc2ccc(Cl)cc21,–,inactive: -0.173%
CCN(CC)c1ccc(C=C2C(=O)NC(=S)NC2=O)cc1,–,inactive: -17.7%
CCc1ccc(OCC(=O)N2CCN(CCc3ccccn3)CC2)cc1,"inconclusive: 0.251 µM [inhibitor, full curve, poor fit]",–
COC(=O)C1=C(c2ccccc2OCc2ccccc2)C[C@@H]2CC[C@H]1N2C(=O)NCCOc1ccccc1Cl,"inconclusive: 20 µM [inhibitor, partial curve, poor fit]",–
CCCCn1c(O)c(C(=O)/C=C/c2c[nH]c3ccccc23)c(=O)[nH]c1=O,active: 25.1 µM,–
COc1ccc2c(c1O)-c1c(OC)c(OC)cc3c1[C@H](C2)N(C)CC3,"inconclusive: 35.5 µM [inhibitor, partial curve]",–
Cc1ccc(N2C(=O)NC(=O)/C(=C\c3ccc(N4CCOCC4)cc3)C2=O)cc1,–,inactive: -2.76%
COc1ccc(-n2c(/C=C/c3ccc(O)c(O)c3)nc3ccccc3c2=O)cc1,–,inactive: -28.1%
c1cncc(C2Nc3cccc4cccc(c34)N2)c1,–,inactive: -26.8%
Cc1oc(-c2ccc(Cl)cc2)nc1CN1C(=O)CN=C(c2ccccc2)c2cc(Cl)ccc21,"inconclusive: 56.2 µM [inhibitor, single point]",–
